The record followed here is patent US20060257938A1, “Method of screening for drugs that block ligand binding to a lipid binding protein” (priority 2005, published 2006).

Substitutions are numbered along the chain they refer to. Where “and” joins values, the source holds several entries; their conditions need not be identical. Identical values can stand only once.

The chains are these.
B1: 55L, 72A (protein, listed as Rattus norvegicus)
chain: AFDGTWKVDRNENYEKFMEKMGINVVKRKLGAHDNLKLTITQEGNKFTVKESSNLRNIDVVFELGVDFAYSAADGTELTGTWTMEGNKLVGKFKRVDNGKELIAVREISGNELIQTYTYEGVEAKRIFKKE
modifications: PEPTIDE (1)...(131) wild-type rat intestinal fatty acid binding protein
B2: 72A 117A (protein, listed as Rattus norvegicus)
chain: B1 chain with L55F, Y117A
modifications: PEPTIDE (1)...(131) wild-type rat intestinal fatty acid binding protein
B3: 38H, 72A (protein, listed as Rattus norvegicus)
chain: B1 chain with L38H, L55F
modifications: PEPTIDE (1)...(131) wild-type rat intestinal fatty acid binding protein
B4: 38M 72G 117F (protein, listed as Rattus norvegicus)
chain: B1 chain with L38M, L55F, A72G, Y117F
modifications: PEPTIDE (1)...(131) wild-type rat intestinal fatty acid binding protein
B5: 18L 73V 72A (protein, listed as Rattus norvegicus)
chain: B1 chain with M18L, L55F, A73V
modifications: PEPTIDE (1)...(131) wild-type rat intestinal fatty acid binding protein
B6: 14L 18I 31L 73F 117A 72A (protein, listed as Rattus norvegicus)
chain: B1 chain with Y14L, M18I, G31L, L55F, A73F, Y117A
modifications: PEPTIDE (1)...(131) wild-type rat intestinal fatty acid binding protein
B7: 14L 18L 31L 73G 117V 72A (protein, listed as Rattus norvegicus)
chain: B1 chain with Y14L, M18L, G31L, L55F, A73G, Y117V
modifications: PEPTIDE (1)...(131) wild-type rat intestinal fatty acid binding protein
B8: 38G, 72A (protein, listed as Rattus norvegicus)
chain: B1 chain with L38G, L55F
modifications: PEPTIDE (1)...(131) wild-type rat intestinal fatty acid binding protein
B9: 70H, 72A (protein, listed as Rattus norvegicus)
chain: B1 chain with L55F, Y70H
modifications: PEPTIDE (1)...(131) wild-type rat intestinal fatty acid binding protein
B10: 70W, 72A (protein, listed as Rattus norvegicus)
chain: B1 chain with L55F, Y70W
modifications: PEPTIDE (1)...(131) wild-type rat intestinal fatty acid binding protein
B11: 106H, 72A (protein, listed as Rattus norvegicus)
chain: B1 chain with L55F, R106H
modifications: PEPTIDE (1)...(131) wild-type rat intestinal fatty acid binding protein
B12: 106S, 72A (protein, listed as Rattus norvegicus)
chain: B1 chain with L55F, R106S
modifications: PEPTIDE (1)...(131) wild-type rat intestinal fatty acid binding protein
B13: 106V, 72A (protein, listed as Rattus norvegicus)
chain: B1 chain with L55F, R106V
modifications: PEPTIDE (1)...(131) wild-type rat intestinal fatty acid binding protein
B14: 106A, 72A (protein, listed as Rattus norvegicus)
chain: B1 chain with L55F, R106A
modifications: PEPTIDE (1)...(131) wild-type rat intestinal fatty acid binding protein
B15: 91Y, 72A (protein, listed as Rattus norvegicus)
chain: B1 chain with L55F, G91Y
modifications: PEPTIDE (1)...(131) wild-type rat intestinal fatty acid binding protein
B16: 18G 31W 73V 72A (protein, listed as Rattus norvegicus)
chain: B1 chain with M18G, G31W, L55F, A73V
modifications: PEPTIDE (1)...(131) wild-type rat intestinal fatty acid binding protein
B17: 106N, 72A (protein, listed as Rattus norvegicus)
chain: B1 chain with L55F, R106N
modifications: PEPTIDE (1)...(131) wild-type rat intestinal fatty acid binding protein
B18: 91C, 72A (protein, listed as Rattus norvegicus)
chain: B1 chain with L55F, G91C
modifications: PEPTIDE (1)...(131) wild-type rat intestinal fatty acid binding protein
B19: 106F, 72A (protein, listed as Rattus norvegicus)
chain: B1 chain with L55F, R106F
modifications: PEPTIDE (1)...(131) wild-type rat intestinal fatty acid binding protein
B20: 106I, 72A (protein, listed as Rattus norvegicus)
chain: B1 chain with L55F, R106I
modifications: PEPTIDE (1)...(131) wild-type rat intestinal fatty acid binding protein
B21: 38V 62V 117A 72A (protein, listed as Rattus norvegicus)
chain: B1 chain with L38V, L55F, F62V, Y117A
modifications: PEPTIDE (1)...(131) wild-type rat intestinal fatty acid binding protein
B22: 70S, 72A (protein, listed as Rattus norvegicus)
chain: B1 chain with L55F, Y70S
modifications: PEPTIDE (1)...(131) wild-type rat intestinal fatty acid binding protein
B23: 18K, 72A (protein, listed as Rattus norvegicus)
chain: B1 chain with M18K, L55F
modifications: PEPTIDE (1)...(131) wild-type rat intestinal fatty acid binding protein

A short description of the first series: Baseline fluorescence ratio Ro of probe in absence of analyte. Conditions: baseline fluorescence ratio of probe.
In the case of B1, the Ro turned out to be 0.155.
As for B2, the Ro turned out to be 0.273.
Take B3: the Ro came out at 0.204.
As to B4, the Ro is 0.241.
On the same count and under the same terms, next, B5: 0.364 and 0.455.
As to B6, the Ro worked out at 0.255.
Still for that read-out and setting: the figure for B7 is 0.440.

The same series, now with this note: baseline fluorescence ratio of probe, no fatty acid.
For the molecule B8, the Ro worked out at 0.301.
Take B9: the Ro worked out at 0.374.
Still for that read-out and setting: next, B10: 0.388.
On to B1, for which the Ro amounted to 0.155.
Regarding B11, the Ro worked out at 0.279.
Same read-out and setting: next, B12: 0.258; B13: 0.261.
For B14, the Ro was found to be 0.249.
With B15, the Ro amounted to 0.307.
On to B16, for which the Ro came to 0.232.
Consider B17, for which the Ro is 0.238.
Regarding B3, the Ro is 0.204.
Take B18: the Ro was found to be 0.334.
Regarding B19, the Ro worked out at 0.294.
For B20, the Ro came out at 0.291.
For the molecule B21, the Ro worked out at 0.325.
Still for that read-out and setting: the figure for B22 is 0.422; for B5 it is 0.364; for B6 it is 0.255.
Turning to B7, the Ro is 0.440.
B23: the Ro is listed as 0.359.
